Among the data in publication PMC8962522, “Direct interaction of TrkA/CD44v3 is essential for NGF-promoted aggressiveness of breast cancer cells” (Journal of Experimental & Clinical Cancer Research : CR, 2022) are binding values, retold here.

Sequences of proteins named here, by UniProt entry; tags and fusion partners are left off. A change or cut given only in a name is not applied to a line headed by its entry. A line that says so, or that is headed by a name, gives the form on record, which may keep a tag or linker. Residues count along the entry.
CD44s (P16070, form named): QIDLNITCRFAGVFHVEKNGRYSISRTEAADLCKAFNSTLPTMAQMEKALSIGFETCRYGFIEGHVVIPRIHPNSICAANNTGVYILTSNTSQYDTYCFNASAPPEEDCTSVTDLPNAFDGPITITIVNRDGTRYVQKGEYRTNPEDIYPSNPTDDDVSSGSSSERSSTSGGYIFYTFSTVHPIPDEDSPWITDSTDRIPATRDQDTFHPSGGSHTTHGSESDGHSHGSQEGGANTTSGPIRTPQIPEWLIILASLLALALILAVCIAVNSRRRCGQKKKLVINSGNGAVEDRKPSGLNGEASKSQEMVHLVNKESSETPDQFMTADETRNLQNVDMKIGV
UniProt P04629, residues 33-796: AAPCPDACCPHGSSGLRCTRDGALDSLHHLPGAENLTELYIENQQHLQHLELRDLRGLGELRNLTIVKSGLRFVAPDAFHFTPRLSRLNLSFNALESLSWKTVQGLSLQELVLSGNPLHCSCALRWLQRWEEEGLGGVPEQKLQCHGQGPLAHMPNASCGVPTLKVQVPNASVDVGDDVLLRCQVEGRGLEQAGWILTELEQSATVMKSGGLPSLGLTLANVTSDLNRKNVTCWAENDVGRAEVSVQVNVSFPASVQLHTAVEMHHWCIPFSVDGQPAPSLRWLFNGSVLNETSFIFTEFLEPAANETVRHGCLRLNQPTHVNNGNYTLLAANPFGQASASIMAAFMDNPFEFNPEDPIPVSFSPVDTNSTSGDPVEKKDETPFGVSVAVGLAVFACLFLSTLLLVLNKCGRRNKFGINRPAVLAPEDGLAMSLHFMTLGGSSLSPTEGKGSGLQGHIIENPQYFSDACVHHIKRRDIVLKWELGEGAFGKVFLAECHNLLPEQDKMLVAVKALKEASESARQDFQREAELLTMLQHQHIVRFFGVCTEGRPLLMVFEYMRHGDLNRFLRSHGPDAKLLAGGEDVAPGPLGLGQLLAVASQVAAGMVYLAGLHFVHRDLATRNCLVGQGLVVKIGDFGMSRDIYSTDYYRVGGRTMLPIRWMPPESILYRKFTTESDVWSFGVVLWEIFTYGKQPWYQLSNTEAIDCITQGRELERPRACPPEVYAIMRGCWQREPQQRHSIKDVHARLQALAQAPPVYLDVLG

These are yes or no findings as the source states them, for the method shown. Binding seen in cells or lysates may run through a third protein.

For the test, the target named is CD44s (UniProt P16070). Briefly: proximity ligation; COS-7 cells transfected with TrkA (wild type or H112A) and a CD44 isoform or deletion mutant; NGF 100 ng/ml for 0, 5 and 30 min; fixed cells; rabbit anti-TrkA and mouse anti-CD44 antibodies.

“TrkA wild type (from UniProt P04629 33-796) (receptor)”: the binding entry is on record as “no binding”.
